{"source": "PubChem BioAssay AID1259405 – NCATS | 2018", "screen": "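Mouse-designed siRNAs used to find CHO productivity engineering targets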 (primary screen)", "cell system": "Chinese hamster CHO-K1 ovary cells with stable secreted eGFP expression", "reagent": "single siRNA against mouse genes, 0.8 pmol siRNA per well (2 µl of 400 nM stock)", "time to read-out": "3 days", "detection": "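Percent of the per-plate non-targeting control median for intracellular GFP per well by laser scanning cytometry and for cell viability by ATP luminescence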", "scale": "GFP, % of control: higher = more GFP per well, higher productivity; viability (ATP), % of control: higher = more viable cells (more ATP)", "active means": "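Called active when intracellular GFP, relative to negative control, is at or above 120%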", "note": "In all, the deposit lists about 50,000 reagents; shown is a part drawn at random. Of all reagents, about 4,000 (8%) were called active. 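Mouse siRNA library applied to hamster cells; one well for each siRNA.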 Entries without a mark were called inactive. Reagents against one gene are numbered here."}
{"gene knocked down": "Pcdhb3", "siRNA no.": 1, "GFP, % of control": 88, "viability (ATP), % of control": 81.9}
{"gene knocked down": "Pcdhb3", "siRNA no.": 2, "GFP, % of control": 99.9, "viability (ATP), % of control": 78.7}
{"gene knocked down": "Or8g24", "siRNA no.": 1, "GFP, % of control": 35.7, "viability (ATP), % of control": 32.3}
{"gene knocked down": "Or8g24", "siRNA no.": 2, "GFP, % of control": 83.1, "viability (ATP), % of control": 72.3}
{"gene knocked down": "Or8g24", "siRNA no.": 3, "GFP, % of control": 101, "viability (ATP), % of control": 93.6}
{"gene knocked down": "Eif3f", "siRNA no.": 1, "GFP, % of control": 91.5, "viability (ATP), % of control": 40.9}
{"gene knocked down": "Eif3f", "siRNA no.": 2, "GFP, % of control": 48.1, "viability (ATP), % of control": 45.6}
{"gene knocked down": "Eif3f", "siRNA no.": 3, "GFP, % of control": 28.8, "viability (ATP), % of control": 30.6}
{"gene knocked down": "Gpr19", "siRNA no.": 1, "GFP, % of control": 72.1, "viability (ATP), % of control": 33.5}
{"gene knocked down": "Gpr19", "siRNA no.": 2, "GFP, % of control": 87.1, "viability (ATP), % of control": 65.7}
{"gene knocked down": "Gpr19", "siRNA no.": 3, "GFP, % of control": 37.7, "viability (ATP), % of control": 49}
{"gene knocked down": "Zfp30", "siRNA no.": 1, "GFP, % of control": 59.1, "viability (ATP), % of control": 72.3}
{"gene knocked down": "Zfp30", "siRNA no.": 2, "GFP, % of control": 67.2, "viability (ATP), % of control": 75.3}
{"gene knocked down": "Zfp30", "siRNA no.": 3, "GFP, % of control": "127 (active)", "viability (ATP), % of control": 57}
{"gene knocked down": "Klre1", "siRNA no.": 1, "GFP, % of control": "139 (active)", "viability (ATP), % of control": 40.9}
{"gene knocked down": "Klre1", "siRNA no.": 2, "GFP, % of control": 68.6, "viability (ATP), % of control": 56.9}
{"gene knocked down": "Klre1", "siRNA no.": 3, "GFP, % of control": 66.2, "viability (ATP), % of control": 61.2}
{"gene knocked down": "Tmt1a2", "siRNA no.": 1, "GFP, % of control": 51.9, "viability (ATP), % of control": 46.7}
{"gene knocked down": "Tmt1a2", "siRNA no.": 2, "GFP, % of control": 106, "viability (ATP), % of control": 96.7}
{"gene knocked down": "Tmt1a2", "siRNA no.": 3, "GFP, % of control": 24.1, "viability (ATP), % of control": 44.3}
{"gene knocked down": "Rgs6", "siRNA no.": 1, "GFP, % of control": "129 (active)", "viability (ATP), % of control": 90.5}
{"gene knocked down": "Rgs6", "siRNA no.": 2, "GFP, % of control": 106, "viability (ATP), % of control": 110}
{"gene knocked down": "Rgs6", "siRNA no.": 3, "GFP, % of control": 63.2, "viability (ATP), % of control": 70.6}
{"gene knocked down": "Zfp248", "siRNA no.": 1, "GFP, % of control": 64.1, "viability (ATP), % of control": 80.2}
{"gene knocked down": "Zfp248", "siRNA no.": 2, "GFP, % of control": "124 (active)", "viability (ATP), % of control": 102}
{"gene knocked down": "Zfp248", "siRNA no.": 3, "GFP, % of control": 68.1, "viability (ATP), % of control": 90.4}
{"gene knocked down": "Trmu", "siRNA no.": 1, "GFP, % of control": 85.9, "viability (ATP), % of control": 100}
{"gene knocked down": "Trmu", "siRNA no.": 2, "GFP, % of control": 97.3, "viability (ATP), % of control": 74.6}
{"gene knocked down": "Trmu", "siRNA no.": 3, "GFP, % of control": "136 (active)", "viability (ATP), % of control": 83.6}
{"gene knocked down": "Cdh12", "siRNA no.": 1, "GFP, % of control": 94.8, "viability (ATP), % of control": 83.3}
{"gene knocked down": "Cdh12", "siRNA no.": 2, "GFP, % of control": 80.4, "viability (ATP), % of control": 84.7}
{"gene knocked down": "Stra8", "siRNA no.": 1, "GFP, % of control": 88.9, "viability (ATP), % of control": 87.4}
{"gene knocked down": "Stra8", "siRNA no.": 2, "GFP, % of control": 70.2, "viability (ATP), % of control": 95.5}
{"gene knocked down": "Stra8", "siRNA no.": 3, "GFP, % of control": "140 (active)", "viability (ATP), % of control": 107}
{"gene knocked down": "Plekhb1", "siRNA no.": 1, "GFP, % of control": 77.4, "viability (ATP), % of control": 77.8}
{"gene knocked down": "Plekhb1", "siRNA no.": 2, "GFP, % of control": 58.9, "viability (ATP), % of control": 56.6}
{"gene knocked down": "Plekhb1", "siRNA no.": 3, "GFP, % of control": 59.6, "viability (ATP), % of control": 90.4}
{"gene knocked down": "Zdhhc17", "siRNA no.": 1, "GFP, % of control": 80.7, "viability (ATP), % of control": 79.7}
{"gene knocked down": "Zdhhc17", "siRNA no.": 2, "GFP, % of control": 64.6, "viability (ATP), % of control": 93.7}
{"gene knocked down": "Zdhhc17", "siRNA no.": 3, "GFP, % of control": 62.5, "viability (ATP), % of control": 74.3}
